Results on two molecules are retold here after article PMC5127646.

Test [1] concerns the target RBM5 OCRE domain (residues 451-511), wild type (human) (UniProt P52756). The test can be described thus: NMR titration; 0.2 mM ^15N-labeled OCRE titrated with an excess of unlabeled SmN or SmB constructs, 1H,15N HSQC, 298 K, 20 mM sodium phosphate pH 6.5, 50 mM NaCl; both purified.
The target is the same in test [2]. The test can be described thus: NMR titration; SmN-derived wild type and mutant 11-mer peptides at a 1:10 ratio of OCRE:peptide; normalized CSP score of 7 OCRE residues, semi-quantitative relative affinities; both purified.

These are yes or no findings as the source states them, for the method shown. Some results given as binding are weak or reduced against the parent protein; the word gives no strength.

On to GMRPPPPGIRG [SmN peptide, residues 219-229 (…)], for which the binding result in test [1] and in test [2] was “binds weakly” throughout.
GMAPPPPGIRG [SmN-derived mutant peptide …]: the binding entry in test [2] is given as “binds weakly”.
